Consider two sequences from article PMC5526994 (Nature Communications, 2017).

For at least one entry, the source does not settle the construct or the ends of the probe. For some of these results: The comparison behind a weaker result is the experiment's own reference, which may not be listed here. For some of these results: At least one verdict was read from the data and is not stated in words by the source.

Test in all cases: EMSA
For data set [1], the system named is TBP (core) + Brf2 (62-419) + Bdp1-WT. Conditions: EMSA: 500 mM ammonium acetate, 50 mM HEPES pH 7.9, 10% glycerol, 1 mM TCEP, 21 °C 20 min, diluted twofold (100 mM ammonium acetate, 40% glycerol) before …; recombinant protein; label: 5' Cy5 on strand 1.
Data set [2] has as its system TBP (core) + Brf2 (62-419) + Bdp1-ΔC. Conditions: EMSA: 500 mM ammonium acetate, 50 mM HEPES pH 7.9, 10% glycerol, 1 mM TCEP, 21 °C 20 min, diluted twofold (100 mM ammonium acetate, 40% glycerol) before …; recombinant protein; label: 5' Cy5 on strand 1.
The test system of data set [3] is TBP (core) + Brf2 (62-419) + Bdp1 R334E. The conditions noted are these: reduced Bdp1 recruitment to Brf2-TBP-DNA; EMSA: 500 mM ammonium acetate, 50 mM HEPES pH 7.9, 10% glycerol, 1 mM TCEP, 21 °C 20 min, diluted twofold (100 mM ammonium acetate, 40% glycerol) before loading; recombinant protein; label: 5' Cy5 on strand 1.
Data set [4] deals with TBP (core) + Brf2 (62-419) + Bdp1-ΔN. Conditions: EMSA: 500 mM ammonium acetate, 50 mM HEPES pH 7.9, 10% glycerol, 1 mM TCEP, 21 °C 20 min, diluted twofold (100 mM ammonium acetate, 40% glycerol) before …; recombinant protein; label: 5' Cy5 on strand 1.
The next data set concerns SNAPcΔ. The conditions noted are these: SNAPcΔ-DNA complex that recruits Bdp1; EMSA: 500 mM ammonium acetate, 50 mM HEPES pH 7.9, 10% glycerol, 1 mM TCEP, 21 °C 20 min, diluted twofold (100 mM ammonium acetate, 40% glycerol) before loading; recombinant protein.
For the next data set, the system named is SNAPcΔ + Bdp1-ΔC. The conditions noted are these: appreciable Bdp1 binding to SNAPc-DNA; EMSA: 500 mM ammonium acetate, 50 mM HEPES pH 7.9, 10% glycerol, 1 mM TCEP, 21 °C 20 min, diluted twofold (100 mM ammonium acetate, 40% glycerol) before loading; recombinant protein.
For another data set, the system named is SNAPcΔ + Bdp1-ΔN. Conditions: reduced Bdp1 binding to SNAPc-DNA; EMSA: 500 mM ammonium acetate, 50 mM HEPES pH 7.9, 10% glycerol, 1 mM TCEP, 21 °C 20 min, diluted twofold (100 mM ammonium acetate, 40% glycerol) before loading; recombinant protein.

Regarding “ATTTGATTGAAGGGCTTAAAATAGGTGTGACAGTAACC (double strand) [U6_2 TATA EMSA probe]”, the binding result in data set [1] is on record as “binds”; in data set [2] it was “binds”; in data set [3] it was “binds more weakly”; in data set [4], “binds”.

As to “CCATAAGTTATCCTAACCAAAAGATGATTTGA (double strand) [U6_2 PSE probe]”, the binding result is given as “binds” in the data set with SNAPcΔ, “binds” in the data set with SNAPcΔ + Bdp1-ΔC and “binds more weakly” in the data set on SNAPcΔ + Bdp1-ΔN.
